Positions count from the first letter of the chain named. Results are given in words; binding and its absence hold for the method and conditions named. Binding seen in cells or lysates may run through a third protein. Some results given as binding are weak or reduced against the parent protein; the word gives no strength.
Legend:
Experiment in all cases: pull-down
[1] = target: T1, smt3-mATGL288-StrepII (mouse adipose triglyceride lipase truncated after D288), wild type (mouse) (UniProt Q8BJ56)
T1 sequence: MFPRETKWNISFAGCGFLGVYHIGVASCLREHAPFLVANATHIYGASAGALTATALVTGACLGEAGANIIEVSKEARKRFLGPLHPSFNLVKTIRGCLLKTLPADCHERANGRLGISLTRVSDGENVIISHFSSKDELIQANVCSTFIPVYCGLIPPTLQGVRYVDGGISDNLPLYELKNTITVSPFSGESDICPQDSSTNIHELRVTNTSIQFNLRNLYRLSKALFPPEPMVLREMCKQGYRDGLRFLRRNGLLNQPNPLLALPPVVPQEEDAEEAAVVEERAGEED

Chains of the proteins cited; added tags and fusions are not shown. Lines headed by an entry give the natural chain unless they say otherwise; changes in a name come on top.
UniProt Q9DBL9, whole entry: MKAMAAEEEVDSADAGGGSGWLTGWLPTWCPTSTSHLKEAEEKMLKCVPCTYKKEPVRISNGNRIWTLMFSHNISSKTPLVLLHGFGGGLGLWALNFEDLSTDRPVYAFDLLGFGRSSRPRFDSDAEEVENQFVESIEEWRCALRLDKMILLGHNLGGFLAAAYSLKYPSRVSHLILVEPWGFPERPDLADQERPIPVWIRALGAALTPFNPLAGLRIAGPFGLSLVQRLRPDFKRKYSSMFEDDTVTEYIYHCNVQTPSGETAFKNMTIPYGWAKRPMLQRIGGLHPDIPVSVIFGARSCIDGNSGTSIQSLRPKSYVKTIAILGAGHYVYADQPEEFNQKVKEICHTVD

[2] = target: T2, smt3-mATGL288-StrepII I212A (mouse) (UniProt Q8BJ56)
T2 sequence: T1 sequence with I212A

[3] = target: T3, smt3-mATGL288-StrepII I212S (mouse) (UniProt Q8BJ56)
T3 sequence: T1 sequence with I212S

[4] = target: T4, smt3-mATGL288-StrepII N209A (mouse) (UniProt Q8BJ56)
T4 sequence: T1 sequence with N209A

[5] = target: T5, smt3-mATGL288-StrepII N209A/I212A/N215A (mouse) (UniProt Q8BJ56)
T5 sequence: T1 sequence with N209A, I212A, N215A

[6] = target: T6, smt3-mATGL288-StrepII N215A (mouse) (UniProt Q8BJ56)
T6 sequence: T1 sequence with N215A

- binding [1]: binds
- binding [2]: binds
- binding [3]: binds
- binding [4]: binds
- binding [5]: binds
- binding [6]: binds
Substance: smt3-mCGI-58-His6 (mouse comparative gene identification-58) (from UniProt Q9DBL9 1-351)
